Assay results reported in patent US20170204191A1.
No constants are given. Whether binding was seen depends on the method and setting. Some results given as binding are weak or reduced against the parent protein; the word gives no strength.

Experiments:
[1] = biological target: T1, MUC1* on the cell surface of MUC1-positive breast cancer cells (ZR-75-1, T47D), P15941; assay: FACS on intact cells; conditions: remark: other sources report otherwise
[2] = biological target: T1, MUC1* on the cell surface of …; assay: FACS on live ZR-75-1 cells, purified antibody; conditions: remark: other sources report otherwise

B1: MIN-C2 monoclonal antibody (antibody, V domains shown)
VH: EVQLEESGGGLVKPGGSLKLSCAASGFTFSGYAMSWVRQTPEKRLEWVATISSGGTYIYYPDSVKGRFTISRDNAKNTLYLQMSSLRSEDTAMYYCARLGGDNYYEYFDVWGAGTTVTVSSAKTTPPSVY
VL: DIVITQSTASLGVSLGQRATISCRASKSVSTSGYSYMHWYQQRPGQPPKLLIYLASNLESGVPARFSGSGSGTDFTLNIHPVEEEDAATYYCQHSRELPFTFGGGTKLEIKRADAAPTVS
**Q.** B1 was tested. Which binding [1] did it give?
**A.** Its binding is “binds”.

**Q.** And the binding [2]?
**A.** The binding was “binds”.
